The results in this text go back to publication PMC7819943, “Rice protein-binding microarrays: a tool to detect cis-acting elements near promoter regions in rice”.

Sequences of proteins named here, by UniProt entry; tags and fusion partners are left off.
UniProt Q0JBA9, entry or part of it: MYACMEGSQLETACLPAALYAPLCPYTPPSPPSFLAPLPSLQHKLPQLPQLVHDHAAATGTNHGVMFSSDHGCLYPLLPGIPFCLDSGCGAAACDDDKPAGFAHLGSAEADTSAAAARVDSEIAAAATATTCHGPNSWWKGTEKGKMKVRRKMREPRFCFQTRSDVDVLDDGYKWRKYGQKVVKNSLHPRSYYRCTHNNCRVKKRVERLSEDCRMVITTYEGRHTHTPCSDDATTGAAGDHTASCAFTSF

This is one part of the list.

The target of this experiment is OsWRKY34 (Oryza sativa, UniProt Q0JBA9 1-250). Nature of the experiment: protein-binding microarray (RPBM); PBS, 2% BSA, 51.3 ng/ul salmon testes DNA, 50 uM zinc acetate, 200 nM TF, 25 C, 1 h; high values mean tight binding. The note with it: protein: recombinant; tags: N-terminal polyhistidine and DsRed monomer fusion (pET32a); label: CyDye5-dUTP incorporated in the synthesized complementary strand; 3' TTTTT single-stranded linker to array surface; dsDNA, one strand shown. The method, boiled down:
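A custom Agilent array was converted to double-stranded form by primer extension with Cy5-dUTP and blocked with 2% BSA. Protein at 200 nM in PBS with 2% BSA, salmon testes DNA and 50 µM zinc acetate was applied for 1 h at 25 °C, followed by washing. The proteins were polyhistidine–DsRed N-terminal fusions of transcription factors, expressed in E. coli BL21-CodonPlus and Ni–NTA-purified. The binding signal is per-feature fluorescence intensity (arbitrary units) from an Axon 4000B scanner.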
As for “GGGGTATAGAAGGGATCGGGTAAATTTCAGAGATATAAAACGGAGTCACCTAGTGCAG”, the binding signal is 8860 fluorescence intensity (a.u.).
Regarding “AAACTTGTATTCAACTGCGCTTTGGTTAGGTTAGGTAGTACGGAGTCACCTAGTGCAG”, the binding signal was 9830 fluorescence intensity (a.u.).
For “TTTCCATTCAACCGGTGAGCCATTTGTCGATTTCTTGCAGCGGAGTCACCTAGTGCAG”, the binding signal is 8960 fluorescence intensity (a.u.).
With “AAAGTTTGTTCGTCGCGGTCTTCTGGAGAGGATGGCTTTCCGGAGTCACCTAGTGCAG” the figure was 8380 fluorescence intensity (a.u.).
For the sequence “GTTTCCTACCAACGTTTGACTGTCCGTCTTATATAATTTTCGGAGTCACCTAGTGCAG”, the binding signal is 9090 fluorescence intensity (a.u.).
“GCTTTGCTCTCTACACCCACCGCCACCGACCCAACCACACCGGAGTCACCTAGTGCAG”: the binding signal is 9830 fluorescence intensity (a.u.).
With “GGCGGCGGCGGAGGAGGAGGAGGGGAGGGGAGCACGAGCGCGGAGTCACCTAGTGCAG”, the binding signal is 17400 fluorescence intensity (a.u.).
As for “TTGGCGGTGGAGGCGGTGGTGGCTTTGGAGGAGACGGTGGCGGAGTCACCTAGTGCAG”, the binding signal is 8650 fluorescence intensity (a.u.).
Take “CCTCCGTTTCAAAATATTTGACACCGTTGACTTTTTAGTACGGAGTCACCTAGTGCAG”: the binding signal was 14100 fluorescence intensity (a.u.).
For the sequence “TATTTGACGTCGTTGACTTTTTAAAACATGTTTGACCATTCGGAGTCACCTAGTGCAG”, the binding signal is 30200 fluorescence intensity (a.u.).
With “AAAACTCCGTCCCCGTACAAACATGTTTTTTTTTTCTCGACGGAGTCACCTAGTGCAG” the figure was 12800 fluorescence intensity (a.u.); with “GACCGGCATCACCTGCCCGGTCTAACCGGACCTGACAAAACGGAGTCACCTAGTGCAG”, 8290 fluorescence intensity (a.u.).
For “TAGCTAGTTATTACGTATTCTTGTGTGGATTACGTTGACTCGGAGTCACCTAGTGCAG”, the binding signal is 8680 fluorescence intensity (a.u.).
Regarding “GAGTGTTTTTGTGAGGGCTTTTGGTCAGTTTGAGTGAACTCGGAGTCACCTAGTGCAG”, the binding signal is 10700 fluorescence intensity (a.u.).
Under “AGAACTATCATCGCCGTTAGGGTCATTTCCATCTTGCGTCCGGAGTCACCTAGTGCAG” stands 10200 fluorescence intensity (a.u.); under “AGTCATTTTCTCTTGCTCATTGGCATTGGCAACTTTAACTCGGAGTCACCTAGTGCAG”, 11100 fluorescence intensity (a.u.); under “GATCTTTGGGTCCCACATGTTATTTTTATTATTTTTGTTACGGAGTCACCTAGTGCAG”, 8210 fluorescence intensity (a.u.).
Regarding “GAATCATGTGCTATCTCGTTAATTATCTGCTCTTTTAGCTCGGAGTCACCTAGTGCAG”, the binding signal was 9000 fluorescence intensity (a.u.).
Regarding “ACATCCTTTCGCTATTTGCTGAAACATTGTTTTTATGTAGCGGAGTCACCTAGTGCAG”, the binding signal was 8870 fluorescence intensity (a.u.).
On to “AGGTGTAGTTTTTTGTTTTATAGATTGATAGGTGGAAAGACGGAGTCACCTAGTGCAG”, for which the binding signal is 11000 fluorescence intensity (a.u.).
“TAACAAACCCCACACTGTCTCTACTAGTCTTCGTCGTCCTCGGAGTCACCTAGTGCAG”: the binding signal is 12000 fluorescence intensity (a.u.).
For “AGATAACTTGCCATGCCGCATTCTCTTTGAACTCGGTCTCCGGAGTCACCTAGTGCAG”, the binding signal was 8530 fluorescence intensity (a.u.).
Take “ACACGTTCAGGCTCATTTCCACCCGTCACGGGCAAATCGTCGGAGTCACCTAGTGCAG”: the binding signal was 8240 fluorescence intensity (a.u.).
On to “CATTTATCTATTTATCTATCTATATATATTATATTATATTCGGAGTCACCTAGTGCAG”, for which the binding signal is 8560 fluorescence intensity (a.u.).
With “GATTCTCGCTAATCCGAGTGGCCAAATTGACTGTTCCATTCGGAGTCACCTAGTGCAG” the figure was 8680 fluorescence intensity (a.u.).
Turning to “GAATCAAATCTCTACCGTCCATCCGTCATCTGATTTAATCCGGAGTCACCTAGTGCAG”, the binding signal is 8160 fluorescence intensity (a.u.).
Take “CGCGTTCTTATCTCGGCCATCGCCGTCGCCGTCGCCGTCGCGGAGTCACCTAGTGCAG”: the binding signal was 8510 fluorescence intensity (a.u.).
Turning to “GATACAATAATTACTCCGTATTACTCTCTCTCCCTGCTTACGGAGTCACCTAGTGCAG”, the binding signal is 11300 fluorescence intensity (a.u.).
In the case of “CGCCACCGCATCCAGTCACCTCACCACCACCGCAGCATCACGGAGTCACCTAGTGCAG”, the binding signal is 10000 fluorescence intensity (a.u.).
Consider “AAAAGTCAACGGTGTCAAACATTTTAAAAGGGAGGGAGTACGGAGTCACCTAGTGCAG”, for which the binding signal is 8040 fluorescence intensity (a.u.).
Under “TATAAATCTGCAGCTTCACTCGCCGCTACCATCCAATCCACGGAGTCACCTAGTGCAG” stands 9630 fluorescence intensity (a.u.); under “CAGCTTTTCCAGATTCTCACCAGCTGCTTCTCAGAGTCTTCGGAGTCACCTAGTGCAG”, 10200 fluorescence intensity (a.u.); under “TCCCACCCGTTATCTCTCCTAACTTTTTCTCTCCTCTCTCCGGAGTCACCTAGTGCAG”, 8410 fluorescence intensity (a.u.).
As for “GTTTGGATCCGCGTGCCGTCTAAGTTTCCGTTTTGGATCTCGGAGTCACCTAGTGCAG”, the binding signal is 8370 fluorescence intensity (a.u.).
“GAATGGTGGAGGGTTGCGATTGGTTGGGAAGATAATGTTGCGGAGTCACCTAGTGCAG”: the binding signal is 10000 fluorescence intensity (a.u.).
Take “AATCATCTACTATATTCTACATTAGTCTTCTGCATCCATCCGGAGTCACCTAGTGCAG”: the binding signal is 11600 fluorescence intensity (a.u.).
As for “CGATTCGTGTGTGTGCGCGACGCGTTTCCGCCTTTTACGTCGGAGTCACCTAGTGCAG”, the binding signal was 9050 fluorescence intensity (a.u.).
Take “AAAACCAAACCAAACCAATATTGCATGGTCCAGTGCACCACGGAGTCACCTAGTGCAG”: the binding signal is 8280 fluorescence intensity (a.u.).
As to “TACCACTGCGCATCCACCACCACCACACACGGATTTCAGACGGAGTCACCTAGTGCAG”, the binding signal is 9500 fluorescence intensity (a.u.).
With “TTTGGGCTTTTGGCTGGACGCGTCACGCGCGCGTTATTATCGGAGTCACCTAGTGCAG” the figure was 8340 fluorescence intensity (a.u.); with “ATTAAGCATGGACTAGAATAGTCCACATGTTGTATTTTTTCGGAGTCACCTAGTGCAG”, 8440 fluorescence intensity (a.u.).
Under “CTCTCTTTCGCAGAAATCCTGGGCGCCTCTCTGTCAGTTTCGGAGTCACCTAGTGCAG” stands 10200 fluorescence intensity (a.u.); under “GGGCTTGTTGGGGTTGCTGTGGTAGCCGGGAGGGAGGGGACGGAGTCACCTAGTGCAG”, 28500 fluorescence intensity (a.u.).
Regarding “GCTCGCTCGGTCGCTCGTTCCATTTGGGTTTGACACCTCACGGAGTCACCTAGTGCAG”, the binding signal was 8900 fluorescence intensity (a.u.).
Under “TTGATTGCAACGTTTGACCACTTGTCTTATTTTTTTTTTGCGGAGTCACCTAGTGCAG” stands 9780 fluorescence intensity (a.u.); under “TCTTCTGCCGCTCGTTTTCCATTGCCGACGCGCAGCACGCCGGAGTCACCTAGTGCAG”, 8480 fluorescence intensity (a.u.).
Take “ATCAAACCCATCAAAGATGCGCATGTCTGCCATTGGCTCTCGGAGTCACCTAGTGCAG”: the binding signal was 8150 fluorescence intensity (a.u.).
In the case of “ACACCCAAAATTTTTCATTTCTCGCGAACTAAACGGGGCCCGGAGTCACCTAGTGCAG”, the binding signal was 8120 fluorescence intensity (a.u.).
For the sequence “TTTTCTTTTCTTCTTCTTTTCGTTCTTCTTGGATAATGCTCGGAGTCACCTAGTGCAG”, the binding signal was 12700 fluorescence intensity (a.u.).
On to “ACATCAAAACTTTCTACACACATAAATTTTTAACTTTTCCCGGAGTCACCTAGTGCAG”, for which the binding signal was 9600 fluorescence intensity (a.u.).
With “TGTTTGTGTGGCATCTTTTTTTTTTCGTGTTTGCGTCGCACGGAGTCACCTAGTGCAG”, the binding signal was 12700 fluorescence intensity (a.u.).
With “TCACTTTATCTATTCCTATTACATTTATCTTTGCCTTTTACGGAGTCACCTAGTGCAG”, the binding signal is 10800 fluorescence intensity (a.u.).
Under “GCCACCGATCCGCCCGTCCCTGCTCTGGGCTTGCCGCCTTCGGAGTCACCTAGTGCAG” stands 8870 fluorescence intensity (a.u.); under “ACCCGTTGCAACGCACGGGCATTTTTCTAGTCCATTATAACGGAGTCACCTAGTGCAG”, 9180 fluorescence intensity (a.u.).
